The other results are listed elsewhere or left out. Shown are side measurements of this screen, not its main read-out; they come without a call. The list favours compounds with an active or inconclusive main result. The note in brackets gives the kind of curve behind each potency; many fits are weak.
Assay: qHTS Assay for Modulators of Lamin A Splicing
Settings: HeLa LMNA splicing GFP/RFP minigene ratio, 48 h
Outline: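 Read-out is the ratio of GFP to DsRed2 object intensity, acquired by 488 nm laser-scanning cytometry on HeLa lamin A-EGFP minigene reporter cells. Compound incubation 48 hrs at 37 °C in Opti-MEM with 2% FBS; DMSO 0.5% final.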

[1] = measured here: GFP splicing reporter channel
[2] = measured here: RFP viability control channel

CCN(CC)S(=O)(=O)c1ccc(C(=O)NC2CC(=O)N(c3ccc(OC)c(OC)c3)C2)cc1 (centres undefined)
AC50 [1]: 3.98 µM [rising, full curve, poor fit] | AC50 [2]: 4.47 µM [rising, single point]

CC(/C=C/c1ccccc1)=N\Nc1nc(-c2ccccc2)cs1
AC50 [1]: 7.08 µM [rising, partial curve, poor fit] | AC50 [2]: 8.91 µM [rising, partial curve, poor fit]

Cc1ccc(CNS(=O)(=O)c2ccc3[nH]c4c(c3c2)CCCCC4)cc1
AC50 [1]: 35.5 µM [falling, single point] | AC50 [2]: 35.5 µM [falling, partial curve]

Cc1ccc2cc(C)c(SCC(=O)NCc3ccco3)nc2c1
AC50 [1]: 0.00355 µM [falling, full curve, poor fit]

Cc1ccccc1OCC(=O)Nc1ccccc1N1CCCCC1
AC50 [1]: 14.1 µM [rising, single point] | AC50 [2]: 20 µM [rising, single point]

Cc1ccc(-c2nc(NC(=O)c3nn(C)cc3[N+](=O)[O-])sc2C)cc1
AC50 [2]: 25.1 µM [falling, single point]

Cc1ccc(C)c(Nc2c([N+](=O)[O-])cc(C(=O)N3CC(=O)Nc4ccccc43)cc2[N+](=O)[O-])c1
AC50 [1]: 35.5 µM [falling, single point]

COc1ccc(-c2nc3ccccc3c(=O)n2CCOc2ccccc2C)cc1
AC50 [2]: 1.78 µM [rising, full curve, poor fit]

CCn1c(C)nc2cc(S(=O)(=O)C(F)(F)C(F)C(F)(F)F)ccc21 (centres undefined)
AC50 [1]: 1.12 µM [rising, full curve] | AC50 [2]: 15.8 µM [rising, partial curve]

Cc1cccc(NC(=O)C2CCCN(S(=O)(=O)c3ccc4c(c3)CCCC(=O)N4)C2)c1 (centres undefined)
AC50 [2]: 0.01 µM [falling, full curve, poor fit]

COc1ccc(N=C2SC(CC(=O)Nc3cccc(Cl)c3)C(=O)N2Cc2ccco2)cc1 (centres undefined)
AC50 [1]: 35.5 µM [falling, single point] | AC50 [2]: 0.01 µM [falling, full curve, poor fit]

O=C(O)C1CC(O)CN1c1nc(Cl)ccc1[N+](=O)[O-] (centres undefined)
AC50 [1]: 22.4 µM [rising, partial curve, poor fit]

Cc1ccc(C)n1-n1c(C)nc2sc(-c3ccccc3)cc2c1=O
AC50 [1]: 25.1 µM [rising, single point] | AC50 [2]: 25.1 µM [rising, single point]

Cc1nn(C)c(C)c1/C=N/N=C1\CCC2C3CCc4cc(O)ccc4C3CCC12C (centres undefined)
AC50 [2]: 15.8 µM [rising, single point]

Brc1ccc(-c2cn3c(n2)CCc2ccc4cccnc4c2-3)cc1
AC50 [1]: 35.5 µM [falling, single point] | AC50 [2]: 35.5 µM [falling, single point]

O=C(Cn1nc(CNc2ccc(Cl)cc2)[n+]2c1CCCCC2)c1ccccc1
AC50 [1]: 35.5 µM [rising, single point] | AC50 [2]: 35.5 µM [rising, single point]

COc1ccc(C(=O)c2sc3nc(-c4ccccc4)ccc3c2N)cc1OC
AC50 [2]: 22.4 µM [falling, partial curve, poor fit]

O=c1[nH]n2c(=O)c3c([nH]c2c1N=Nc1cccc(C(F)(F)F)c1)CCCC3
AC50 [2]: 22.4 µM [rising, partial curve, poor fit]

COc1ccc(/C=C/C(=O)NCCCc2ccccc2)cc1
AC50 [1]: 31.6 µM [rising, single point] | AC50 [2]: 35.5 µM [rising, single point]

CC(C)c1ccc2c(c1)c(SC(C)(C)C)c(CC(C)(C)C(=O)O)n2Cc1ccc(Cl)cc1
AC50 [1]: 20 µM [falling, partial curve] | AC50 [2]: 17.8 µM [falling, partial curve]

Cc1nn(-c2ccccc2)c(Cl)c1/C=N/NC(=O)c1ccccc1NS(=O)(=O)c1cccs1
AC50 [1]: 1.26 µM [rising, partial curve] | AC50 [2]: 14.1 µM [rising, partial curve]

Cc1ccc(NCc2ccccc2OCc2ccccc2F)cc1
AC50 [2]: 17.8 µM [rising, single point]

Cc1nn(-c2ccccc2)c2[nH]c(=O)c(CNc3ccc4c(c3)OCCO4)cc12
AC50 [1]: 8.91 µM [rising, partial curve] | AC50 [2]: 3.55 µM [rising, partial curve, poor fit]

CCCCOc1ccc(S(=O)(=O)Nc2ccc(NC(C)=O)cc2)cc1
AC50 [1]: 4.47 µM [rising, full curve, poor fit] | AC50 [2]: 11.2 µM [rising, partial curve]

CN(C)S(=O)(=O)c1ccc(C(=O)Nc2ccccc2[N+](=O)[O-])cc1
AC50 [1]: 12.6 µM [rising, single point]

COC(=O)[C@@H]1C[C@H]1[C@@H](NC(=O)c1ccccc1)c1ccccc1
AC50 [2]: 35.5 µM [rising, single point]

COc1ccc(OC)c(C2C3=C(COC3=O)Nc3cc4c(cc32)OCO4)c1 (centres undefined)
AC50 [1]: 0.224 µM [falling, full curve] | AC50 [2]: 0.251 µM [falling, full curve]

CC(C)NC(=S)N/N=C/c1c[nH]c2ccccc12
AC50 [2]: 10 µM [rising, partial curve]

CN(C)CCCNC(=S)N(Cc1cccs1)Cc1cc2cc3c(cc2[nH]c1=O)OCCO3
AC50 [2]: 0.01 µM [falling, full curve, poor fit]

N/C(=N\OC(=O)c1ccc2ccccc2c1)c1ccc(Br)cc1
AC50 [1]: 1.78 µM [rising, full curve, poor fit] | AC50 [2]: 1.12 µM [rising, full curve, poor fit]

C[C@@H](CCc1ccccc1)NC[C@H](O)c1ccc(O)c(C(N)=O)c1
AC50 [2]: 0.282 µM [falling, single point]

Cc1cc(-n2c(C)cc(C(=O)CSc3ccc4c(c3)OCCO4)c2C)no1
AC50 [1]: 14.1 µM [rising, partial curve] | AC50 [2]: 15.8 µM [rising, partial curve]
